PubChem BioAssay AID1259424 – University of Nebraska Medical Center, 2018
Purpose: 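Seek colon cancer survival genes behaving like KSR1, using a six-gene signature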 (primary screen). Cell system: human HCT116 colon cancer cells. Knock-down reagent: siRNA pool against human genes, 50 nM. Measured: 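Six signature mRNAs by branched-DNA multiplex assay, scaled to two housekeeping genes and non-targeting median, log2; matched to mean KSR1 knockdown profile by Pearson correlation and euclidean distance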. Scale: mean correlation with KSR1 profile and KSR1 correlation: higher = expression change more like KSR1 knockdown; mean distance from KSR1 profile: higher = expression change less like KSR1 knockdown.
In all, the deposit lists about 14,000 reagents; below is a part drawn at random. 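Higher correlation or smaller distance means closer resemblance to KSR1 loss; control wells, including KSR1 knockdowns, recur on many plates.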 Not given: the time to read-out.

gene knocked down | mean correlation with KSR1 profile | mean distance from KSR1 profile | KSR1 correlation, replicate 1 | KSR1 correlation, replicate 2 | KSR1 correlation, replicate 3
CWF19L1 | -0.114 | 3.76 | -0.101 | -0.0915 | -0.069
MED1 | -0.0139 | 2.41 | 0.0553 | -0.0333 | -0.125
SEC22C | 0.0133 | 1.89 | 0.136 | -0.0211 | 0.11
TRPM5 | 0.234 | 1.78 | 0.259 | 0.255 | 0.107
DKK4 | 0.192 | 2.14 | 0.103 | -0.0758 | -0.0264
PRIM1 | 0.0931 | 1.96 | -0.018 | 0.252 | 0.0777
ZC3H12A | 0.603 | 1.78 | 0.553 | 0.539 | 0.531
EFEMP2 | -0.817 | 1.72 | -0.433 | -0.826 | -0.837
ARF4 | -0.36 | 1.71 | -0.552 | -0.453 | -0.29
RNF8 | 0.27 | 1.03 | -0.198 | 0.447 | -0.0654
MAF1 | 0.912 | 1.26 | 0.881 | 0.851 | 0.782
BANK1 | -0.227 | 3.33 | -0.0927 | -0.265 | -0.193
TAAR1 | 0.825 | 2.52 | 0.91 | 0.824 | 0.803
ACD | 0.575 | 1.58 | 0.608 | 0.658 | 0.563
NSL1 | 0.228 | 1.83 | 0.347 | -0.106 | 0.115
RETREG2 | -0.0584 | 1.7 | -0.0741 | -0.287 | -0.278
TSPAN17 | 0.296 | 2.14 | 0.048 | 0.457 | 0.161
MAPK6 | 0.245 | 1.39 | -0.0549 | 0.8 | -0.357
SINHCAF | -0.57 | 1.45 | -0.35 | -0.452 | -0.499
YARS1 | -0.128 | 1.88 | 0.178 | -0.0391 | -0.562
DYNLRB2 | 0.318 | 1.75 | 0.398 | 0.0881 | 0.624
PPM1J | 0.16 | 2.55 | -0.143 | 0.167 | 0.426
IGLJ3 | -0.313 | 2.02 | -0.365 | -0.216 | -0.46
RNF14 | -0.228 | 1.48 | -0.543 | -0.154 | -0.57
FBXO22 | -0.252 | 1.69 | -0.583 | -0.0147 | -0.225
CEBPD | 0.0561 | 2.86 | 0.147 | 0.0938 | -0.0719
GUCA2B | 0.791 | 1.22 | 0.722 | 0.672 | 0.746
SLC1A4 | 0.0713 | 1.66 | 0.0901 | 0.00264 | 0.0894
ACTL6B | -0.839 | 2.67 | -0.787 | -0.971 | -0.784
TMEM132B | -0.278 | 2.78 | -0.175 | -0.205 | -0.541
BCAT2 | 0.225 | 2.1 | -0.16 | 0.427 | 0.421

Part of the list above, set out differently.
{"gene knocked down": "GUCA2B", "mean correlation with KSR1 profile": 0.791, "mean distance from KSR1 profile": 1.22, "KSR1 correlation, replicate 1": 0.722, "KSR1 correlation, replicate 2": 0.672, "KSR1 correlation, replicate 3": 0.746}
{"gene knocked down": "SLC1A4", "mean correlation with KSR1 profile": 0.0713, "mean distance from KSR1 profile": 1.66, "KSR1 correlation, replicate 1": 0.0901, "KSR1 correlation, replicate 2": 0.00264, "KSR1 correlation, replicate 3": 0.0894}
{"gene knocked down": "ACTL6B", "mean correlation with KSR1 profile": -0.839, "mean distance from KSR1 profile": 2.67, "KSR1 correlation, replicate 1": -0.787, "KSR1 correlation, replicate 2": -0.971, "KSR1 correlation, replicate 3": -0.784}

Next entries follow.
gene knocked down | mean correlation with KSR1 profile | mean distance from KSR1 profile | KSR1 correlation, replicate 1 | KSR1 correlation, replicate 2 | KSR1 correlation, replicate 3
SPSB2 | 0.094 | 2.86 | 0.434 | -0.547 | -0.0343
ZMYND8 | 0.872 | 3.44 | 0.0998 | 0.63 | 0.768
SLC13A2 | -0.326 | 2.74 | -0.166 | -0.439 | -0.268
SUB1 | 0.174 | 2.38 | 0.113 | 0.324 | 0.348
MAT1A | -0.192 | 2.15 | 0.0167 | -0.249 | -0.527
COL1A2 | 0.0192 | 3.35 | 0.0248 | 0.0946 | -0.0918
EEF2 | 0.35 | 1.34 | 0.465 | 0.272 | 0.178
RAB3A | -0.421 | 1.15 | -0.36 | -0.564 | -0.171
KLK11 | -0.59 | 2.05 | -0.771 | -0.31 | -0.547
SLC22A16 | 0.799 | 1.68 | 0.714 | 0.636 | 0.628
ENTPD4 | 0.167 | 2.32 | 0.177 | 0.137 | 0.146
KCNH7 | 0.594 | 1.55 | 0.706 | 0.41 | 0.53
PAX1 | 0.879 | 2.42 | 0.8 | 0.74 | 0.828
CWC15 | -0.818 | 3.05 | -0.833 | -0.671 | -0.595
SMR3A | 0.234 | 4.02 | 0.18 | 0.262 | -0.0867
FERMT3 | 0.632 | 1.57 | 0.333 | 0.698 | 0.63
FCGR2B | 0.414 | 1.97 | 0.312 | 0.367 | 0.512
ING4 | 0.203 | 2.5 | 0.416 | 0.196 | 0.137
ARPP21 | -0.371 | 2.8 | 0.0197 | -0.499 | -0.548
